Data taken from PMC5096027 (Chembiochem, 2016).

Assay: solid-phase peptide synthesis
Details: whole synthesis

In order of rising isolated yield:
1. Ac-Ala-(NMe-D-BrTyr)-(4-MePro-Tz)-(D-Leu)-(NMe-Phe)-Opp  2%
2. Piv-Ala-(NMe-D-BrTyr)-(4-MePro-Tz)-(D-Leu)-(NMe-Phe)-Opp  2%
3. Piv-Ala-(NMe-D-BrTyr)-(4-MePro-Tz)-(D-Leu)-Ala-Opp  3%
4. Piv-Ala-Ala-(4-MePro-Tz)-(D-Leu)-(NMe-Phe)-Opp  3%
5. Piv-Ala-(NMe-D-BrTyr)-(4-MePro-Tz)-Ala-(NMe-Phe)-Opp  8%

Same assay, conditions: whole synthesis, overall

“Piv-Ala-(NMe-D-BrTyr)-(4-MePro-Tz)-(D-Leu)-(NMe-Phe)-Ala-NH2” gave an isolated yield of 16%.
